At least one structure is not confirmed: it was looked up by name or label, or the drawing left a doubt.
Columns and labels:
[1] = system: newly diagnosed elderly patients with poor risk AML; experiment: Phase 2 study CTEP-20 of tipifarnib; type: in vivo, human; conditions: of 34 pts with available BM gene expression data
Method: (§1) Clinical studies with tipifarnib were performed in newly diagnosed elderly patients with poor risk AML (CTEP-20, Phase 2) and relapsed and refractory AML (INT-17, Phase 2). Patient selection in these studies was not based on genetic markers. Anecdotal evidence of tipifarnib single agent activity was reported. […] Median OS in the overall study was 107 days for the Tipifarnib group and 109 days for the BSC group in AML301.
FIG. 7. (A) PFS probabilities of previously untreated elderly or unfit AML subjects with a high CXCR4/CXCR2 ratio versus the rest of the patients enrolled in study CTEP-20. Outcome and expression data are available for 34 study subjects. Median survival of subjects with a bone marrow CXCR4/CXCR2 expression ratio in the upper quartile was 406 days versus 67 days in quartiles 1st-3rd, HR=0.44, p=0.09. Median overall PFS was 84 days. (B) Survival probabilities of previously untreated elderly or unfit AML subjects with a high CXCR4/CXCR2 ratio versus the rest of the patients in study CTEP-20. Median survival of subjects with a bone marrow CXCR4/CXCR2 expression ratio in the upper quartile was 728 days versus 179 days in quartiles 1st-3rd, HR=0.26, p=0.07. Median overall survival was 233 days.

[2] = system: elderly patients with newly diagnosed, de novo, or secondary AML; conditions: cited from earlier work
CXCL12 [3] = experiment: ELISA of plasma CXCL12 in PTCL patients receiving tipifarnib; type: in vivo, human; conditions: three patients receiving tipifarnib for at least 30 days, at about day 30
CXCL12 [4] = experiment: Chemokine and cytokine secretion by primary CD1 mouse BM cultures, antibody arrays; type: cell-based; conditions: after treatment with 100 nM
[5] = system: elderly patients with newly diagnosed, de novo, or secondary AML; experiment: Ph3 study AML301, tipifarnib versus BSC; type: in vivo, human; conditions: neutropenia (ANC<1,000/μl), BMR in the lower tertile, BMR<0.027
Method: as §1
AML patients with low percentage of circulating blood blasts (<1 and <10%) and high percentage of bone marrow blasts (>40%) receive clinical benefit from tipifarnib treatment in terms of progression free survival (PFS, CTEP20) or survival (AML301). […] AML301 patients N=82 (18% of study size), HR=0.58, 109 (BSC) vs 201 (tipifarnib) days, P=0.019.
FIGS. 3A-H show results from a clinical tipifarnib trial for subsets of elderly or frail AML patients (AML-301) with varying degrees of neutropenia. […] FIGS. 3B-3F show survival probabilities in AML patient subsets with WBCs>2.1×10^9 cells/L and ANC<1.2×10^9 cells/L (FIG. 3B), ANC<1.0 (FIG. 3C), ANC<0.8 (FIG. 3D), ANC<0.6 (FIG. 3E) and ANC<0.4 (FIG. 3F).

relapsed/refractory CMML = experiment: Tipifarnib-treated CMML subjects (study TIP-004); type: in vivo, human; conditions: of 17 CMML subjects with available pre-treatment BM gene expression data
Source text: FIG. 10B. Progression free survival (PFS) probabilities over time (days) for relapsed/refractory CMML subjects in study TIP-004 receiving tipifarnib with relative CXCR4/CXCR2 expression ratios. CMML patients having higher CXCR4/CXCR2 expression ratios responded better to tipifarnib treatment than those having lower CXCR4/CXCR2 expression ratios.
CXCL12 expression alone or as a ratio of the expression to its receptor CXCR4 predicted complete response to tipifarnib treatment (p=0.08, p=0.001) (FIG. 20A). CXCL12 and the CXCL12/CXCR4 ratio also were predictive of 2 partial responses (PR) observed in 13 highly advanced relapsed/refractory PTCL patients with available GEP (p=0.009, p=0.0007) (FIG. 20B). Four objective responses and 1 tumor lysis syndrome were reported in 17 tipifarnib-treated CMML subjects with available pre-treatment BM gene expression data (FIG. 20C). CXCL12 expression (p=0.07) and the CXCL12/CXCR4 ratio (p=0.03) were predictive of those events (FIG. 20C). Only 3 CRs were reported in 58 patients with available BM gene expression data in study INT-17.

Cn1cncc1[C@@](N)(c1ccc(Cl)cc1)c1ccc2c(c1)c(-c1cccc(Cl)c1)cc(=O)n2C [tipifarnib]
complete responses (CR), number of patients [1]: Nine
Hazards ratio, tipifarnib versus BSC ([2]; overall study, N=457, 1st line therapy): 1.02
survival probability versus BSC ([2]; unselected elderly and unfit AML subjects): no effect
level of plasma CXCL12 (CXCL12 [3]): decreased
levels of secreted CXCL12 (CXCL12 [4]): decreased
outcome with tipifarnib compared with BSC [5]: better outcome
objective responses, number of subjects (relapsed/refractory CMML): Four

From patent US11291663B2, “Methods of treating cancer with farnesyltransferase inhibitors” (Kura Oncology, Inc., priority 2017, dated 2022)
